Assay [1] has as its target HA-tagged BACE1 (UniProt P56817). The assay can be described thus: co-immunoprecipitation with anti-HA antibody and Western blot with anti-myc antibody; reciprocal immunoprecipitation with anti-myc antibody. (A western blot detects proteins with antibodies after separation by electrophoresis.)
Assay [2] shares this target. In words: co-immunoprecipitation with anti-HA antibody from cells transfected with HA-tagged BACE1; gel bands sequenced.
Assay [3] has the same target. In words: co-immunoprecipitation with anti-HA antibody from HEK 293 cells expressing HA-tagged BACE1.

The chains behind the UniProt entries cited, without tags or fusion partners. Where a name states a change or a piece, a line headed by the entry shows the natural chain unless it says otherwise. Residues count along the entry.
UniProt P56817, residues 46-501: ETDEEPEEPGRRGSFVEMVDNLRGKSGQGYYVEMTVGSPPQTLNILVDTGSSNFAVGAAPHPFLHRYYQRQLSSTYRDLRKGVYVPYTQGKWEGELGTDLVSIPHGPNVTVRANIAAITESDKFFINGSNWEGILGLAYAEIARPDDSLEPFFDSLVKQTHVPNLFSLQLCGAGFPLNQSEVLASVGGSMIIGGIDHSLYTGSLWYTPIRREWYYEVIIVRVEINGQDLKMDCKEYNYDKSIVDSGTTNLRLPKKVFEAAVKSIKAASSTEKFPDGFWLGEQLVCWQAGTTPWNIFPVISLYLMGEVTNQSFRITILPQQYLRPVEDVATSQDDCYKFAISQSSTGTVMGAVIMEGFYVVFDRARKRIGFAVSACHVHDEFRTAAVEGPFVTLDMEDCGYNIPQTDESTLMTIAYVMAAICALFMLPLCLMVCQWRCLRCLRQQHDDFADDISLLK
UniProt O95197: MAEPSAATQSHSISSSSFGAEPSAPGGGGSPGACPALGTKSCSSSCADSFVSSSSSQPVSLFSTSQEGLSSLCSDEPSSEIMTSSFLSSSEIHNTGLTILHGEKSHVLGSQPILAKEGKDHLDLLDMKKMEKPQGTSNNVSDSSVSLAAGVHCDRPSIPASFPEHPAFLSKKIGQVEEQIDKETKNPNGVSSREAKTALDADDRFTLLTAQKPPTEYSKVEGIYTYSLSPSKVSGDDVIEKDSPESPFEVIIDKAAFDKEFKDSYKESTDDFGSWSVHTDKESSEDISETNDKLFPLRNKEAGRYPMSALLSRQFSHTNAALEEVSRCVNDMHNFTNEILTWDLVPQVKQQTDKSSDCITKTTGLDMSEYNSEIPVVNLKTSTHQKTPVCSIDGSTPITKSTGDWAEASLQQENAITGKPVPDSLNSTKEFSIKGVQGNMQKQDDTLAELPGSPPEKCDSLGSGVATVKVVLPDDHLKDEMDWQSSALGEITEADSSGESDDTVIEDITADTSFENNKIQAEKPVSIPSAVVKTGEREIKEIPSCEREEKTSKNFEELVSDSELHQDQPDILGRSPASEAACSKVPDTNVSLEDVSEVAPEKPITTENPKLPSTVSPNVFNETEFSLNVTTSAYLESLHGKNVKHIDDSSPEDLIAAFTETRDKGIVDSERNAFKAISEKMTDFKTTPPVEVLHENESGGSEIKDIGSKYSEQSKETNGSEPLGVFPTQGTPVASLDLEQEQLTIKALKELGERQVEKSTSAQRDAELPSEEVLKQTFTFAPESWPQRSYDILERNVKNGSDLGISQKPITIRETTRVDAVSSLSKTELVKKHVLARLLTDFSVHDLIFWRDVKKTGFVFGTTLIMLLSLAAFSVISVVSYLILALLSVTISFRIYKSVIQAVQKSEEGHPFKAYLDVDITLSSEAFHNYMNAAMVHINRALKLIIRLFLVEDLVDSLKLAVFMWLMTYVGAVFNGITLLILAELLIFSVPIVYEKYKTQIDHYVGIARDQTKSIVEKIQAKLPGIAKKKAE

These are yes or no findings as the source states them, for the method shown. Binding seen in cells or lysates may run through a third protein. Some binding calls cover weakened binding; strength is not graded here.

As for “RTN 3 fused to His-Myc tag at the C-terminus (from UniProt O95197 2-1032)”, in assay [1], the binding entry is listed as “binds”.

For “endogenous RTN 3 (from UniProt O95197 2-1032)”, the binding result in assay [2] and in assay [3] was “binds” in each case.

Source of the values: US20040063161A1.
